These are yes or no findings as the source states them, for the method shown. Binding seen in cells or lysates may run through a third protein. Some binding calls cover weakened binding; strength is not graded here.

By UniProt entry, the sequences of proteins in these tests, tags left out.
UniProt Q92830: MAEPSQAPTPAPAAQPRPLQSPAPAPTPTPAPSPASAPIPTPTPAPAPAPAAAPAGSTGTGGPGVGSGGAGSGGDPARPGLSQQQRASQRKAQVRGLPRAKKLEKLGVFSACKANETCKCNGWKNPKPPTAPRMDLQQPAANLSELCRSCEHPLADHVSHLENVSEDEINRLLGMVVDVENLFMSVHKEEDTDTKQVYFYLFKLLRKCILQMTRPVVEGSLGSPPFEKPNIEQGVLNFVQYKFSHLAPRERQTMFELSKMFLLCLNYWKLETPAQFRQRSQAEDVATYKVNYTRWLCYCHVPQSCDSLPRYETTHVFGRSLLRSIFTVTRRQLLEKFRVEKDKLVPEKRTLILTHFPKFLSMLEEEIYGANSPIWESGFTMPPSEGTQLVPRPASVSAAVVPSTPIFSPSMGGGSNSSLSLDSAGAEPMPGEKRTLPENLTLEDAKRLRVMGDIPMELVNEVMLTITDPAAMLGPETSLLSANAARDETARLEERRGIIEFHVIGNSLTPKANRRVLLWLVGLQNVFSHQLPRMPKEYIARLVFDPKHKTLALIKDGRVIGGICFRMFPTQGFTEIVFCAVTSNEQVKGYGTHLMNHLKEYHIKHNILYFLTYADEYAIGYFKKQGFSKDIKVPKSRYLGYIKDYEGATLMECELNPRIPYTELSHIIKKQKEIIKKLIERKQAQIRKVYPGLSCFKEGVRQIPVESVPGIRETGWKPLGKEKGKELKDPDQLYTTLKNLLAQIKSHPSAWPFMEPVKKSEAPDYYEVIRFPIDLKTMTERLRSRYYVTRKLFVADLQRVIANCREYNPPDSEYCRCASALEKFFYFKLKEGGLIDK
UniProt Q09472: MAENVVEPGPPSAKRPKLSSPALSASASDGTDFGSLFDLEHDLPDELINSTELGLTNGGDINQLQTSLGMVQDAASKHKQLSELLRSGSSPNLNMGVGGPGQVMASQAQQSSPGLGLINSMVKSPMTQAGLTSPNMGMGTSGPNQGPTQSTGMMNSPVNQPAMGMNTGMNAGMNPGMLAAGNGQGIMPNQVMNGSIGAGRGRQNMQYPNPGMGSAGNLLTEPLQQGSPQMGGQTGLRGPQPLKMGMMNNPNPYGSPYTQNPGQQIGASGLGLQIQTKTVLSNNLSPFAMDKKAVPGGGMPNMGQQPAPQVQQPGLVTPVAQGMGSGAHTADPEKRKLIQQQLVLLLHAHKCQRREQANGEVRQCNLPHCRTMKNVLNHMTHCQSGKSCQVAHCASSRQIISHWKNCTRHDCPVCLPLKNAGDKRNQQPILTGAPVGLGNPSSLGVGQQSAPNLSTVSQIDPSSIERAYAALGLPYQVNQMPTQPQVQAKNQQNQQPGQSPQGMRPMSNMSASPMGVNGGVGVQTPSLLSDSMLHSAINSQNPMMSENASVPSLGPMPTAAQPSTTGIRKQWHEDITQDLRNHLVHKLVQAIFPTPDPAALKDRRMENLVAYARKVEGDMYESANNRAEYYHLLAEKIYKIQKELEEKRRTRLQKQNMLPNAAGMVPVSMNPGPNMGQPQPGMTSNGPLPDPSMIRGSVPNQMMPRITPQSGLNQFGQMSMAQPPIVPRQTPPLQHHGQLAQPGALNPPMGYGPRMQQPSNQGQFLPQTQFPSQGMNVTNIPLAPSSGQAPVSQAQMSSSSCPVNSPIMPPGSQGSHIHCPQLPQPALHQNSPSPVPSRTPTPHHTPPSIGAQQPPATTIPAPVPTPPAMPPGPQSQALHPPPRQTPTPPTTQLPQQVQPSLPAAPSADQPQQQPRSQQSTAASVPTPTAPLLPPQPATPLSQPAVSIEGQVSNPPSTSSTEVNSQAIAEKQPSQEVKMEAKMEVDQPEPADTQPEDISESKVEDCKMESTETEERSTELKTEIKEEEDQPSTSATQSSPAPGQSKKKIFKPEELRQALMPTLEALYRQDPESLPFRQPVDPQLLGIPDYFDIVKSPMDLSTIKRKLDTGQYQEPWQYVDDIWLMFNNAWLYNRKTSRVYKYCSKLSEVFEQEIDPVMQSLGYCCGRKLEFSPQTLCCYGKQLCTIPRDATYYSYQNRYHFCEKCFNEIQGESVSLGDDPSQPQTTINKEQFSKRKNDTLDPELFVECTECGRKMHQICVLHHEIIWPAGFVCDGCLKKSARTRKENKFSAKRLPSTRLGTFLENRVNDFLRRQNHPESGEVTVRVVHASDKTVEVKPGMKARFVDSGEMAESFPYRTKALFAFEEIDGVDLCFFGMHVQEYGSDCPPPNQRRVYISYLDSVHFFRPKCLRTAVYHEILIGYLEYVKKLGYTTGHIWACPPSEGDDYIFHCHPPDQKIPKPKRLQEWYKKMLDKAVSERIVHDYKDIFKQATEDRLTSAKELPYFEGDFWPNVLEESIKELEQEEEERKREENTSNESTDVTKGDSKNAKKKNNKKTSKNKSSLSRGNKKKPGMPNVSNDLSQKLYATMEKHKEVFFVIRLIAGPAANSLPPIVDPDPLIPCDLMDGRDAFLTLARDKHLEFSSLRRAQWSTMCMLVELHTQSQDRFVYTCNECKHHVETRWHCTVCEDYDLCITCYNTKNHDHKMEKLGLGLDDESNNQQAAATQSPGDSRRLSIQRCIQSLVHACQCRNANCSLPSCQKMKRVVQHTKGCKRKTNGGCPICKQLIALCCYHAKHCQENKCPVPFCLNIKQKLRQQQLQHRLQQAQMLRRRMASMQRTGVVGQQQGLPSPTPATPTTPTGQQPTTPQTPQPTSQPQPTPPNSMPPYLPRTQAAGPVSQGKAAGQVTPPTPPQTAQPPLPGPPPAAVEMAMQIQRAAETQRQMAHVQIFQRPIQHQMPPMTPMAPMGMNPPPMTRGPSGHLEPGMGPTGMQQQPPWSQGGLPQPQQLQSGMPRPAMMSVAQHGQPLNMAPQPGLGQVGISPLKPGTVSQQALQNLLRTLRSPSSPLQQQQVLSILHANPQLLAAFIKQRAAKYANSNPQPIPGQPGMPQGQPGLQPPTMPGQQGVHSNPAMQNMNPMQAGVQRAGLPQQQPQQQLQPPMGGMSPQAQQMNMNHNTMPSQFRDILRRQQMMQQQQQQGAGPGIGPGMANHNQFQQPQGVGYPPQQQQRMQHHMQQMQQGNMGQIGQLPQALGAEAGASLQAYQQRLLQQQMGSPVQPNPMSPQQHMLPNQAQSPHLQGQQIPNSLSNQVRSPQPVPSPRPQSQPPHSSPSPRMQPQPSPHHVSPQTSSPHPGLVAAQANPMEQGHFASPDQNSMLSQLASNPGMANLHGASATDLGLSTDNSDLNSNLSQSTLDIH
UniProt Q9NRC8: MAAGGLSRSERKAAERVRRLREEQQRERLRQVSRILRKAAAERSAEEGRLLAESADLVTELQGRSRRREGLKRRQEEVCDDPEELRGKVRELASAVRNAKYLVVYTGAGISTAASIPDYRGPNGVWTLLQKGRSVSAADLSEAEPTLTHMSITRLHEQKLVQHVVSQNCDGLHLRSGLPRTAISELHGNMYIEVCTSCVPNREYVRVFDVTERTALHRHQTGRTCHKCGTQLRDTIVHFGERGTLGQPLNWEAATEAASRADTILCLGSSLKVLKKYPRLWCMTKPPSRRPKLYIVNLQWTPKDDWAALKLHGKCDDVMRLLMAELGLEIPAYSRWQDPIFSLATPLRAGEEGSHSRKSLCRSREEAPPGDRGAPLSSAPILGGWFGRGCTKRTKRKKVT

The target of this test is T1, kinesin family member (KIF) 23 (human (endogenous in HEK-293T)) (UniProt Q02241).
T1 sequence: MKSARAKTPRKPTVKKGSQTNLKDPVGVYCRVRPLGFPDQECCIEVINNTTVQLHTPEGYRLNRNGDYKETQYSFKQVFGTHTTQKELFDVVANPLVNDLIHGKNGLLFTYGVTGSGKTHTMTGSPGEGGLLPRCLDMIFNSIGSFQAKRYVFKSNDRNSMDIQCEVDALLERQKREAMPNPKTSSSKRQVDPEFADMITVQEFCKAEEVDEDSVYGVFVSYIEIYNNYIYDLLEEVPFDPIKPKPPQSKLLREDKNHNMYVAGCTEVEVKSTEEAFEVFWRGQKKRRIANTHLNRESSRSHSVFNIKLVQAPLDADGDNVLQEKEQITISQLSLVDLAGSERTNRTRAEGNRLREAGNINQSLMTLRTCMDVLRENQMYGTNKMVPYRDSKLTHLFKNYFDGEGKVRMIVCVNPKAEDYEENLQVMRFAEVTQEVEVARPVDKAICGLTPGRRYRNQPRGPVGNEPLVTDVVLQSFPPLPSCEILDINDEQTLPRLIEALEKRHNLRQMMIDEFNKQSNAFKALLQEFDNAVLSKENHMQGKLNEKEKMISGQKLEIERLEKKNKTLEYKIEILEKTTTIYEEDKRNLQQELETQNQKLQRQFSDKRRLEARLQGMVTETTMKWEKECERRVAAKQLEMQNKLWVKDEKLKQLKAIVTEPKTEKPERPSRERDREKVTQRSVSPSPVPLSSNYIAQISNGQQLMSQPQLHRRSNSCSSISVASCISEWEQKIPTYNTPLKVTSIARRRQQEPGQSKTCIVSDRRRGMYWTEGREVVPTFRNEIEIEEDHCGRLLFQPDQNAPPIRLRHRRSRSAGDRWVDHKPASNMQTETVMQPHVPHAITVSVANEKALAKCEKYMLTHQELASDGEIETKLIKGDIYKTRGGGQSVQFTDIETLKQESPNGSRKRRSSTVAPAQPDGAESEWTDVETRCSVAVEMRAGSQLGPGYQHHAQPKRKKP
The test can be described thus: co-IP; HEK-293T cells lysed on ice in RIPA buffer with protease inhibitors; KIF23, SIRT7 or IgG antibody (2 µg) overnight at 4 °C; protein A agarose beads 2 h at 4 °C; washed three times with lysis buffer; western blot.
In the case of “lysine acetyltransferase (KAT) 2A (from UniProt Q92830 1-837) (enzyme)”, the binding result is “no binding”.
As for “lysine acetyltransferase (KAT) 3B (from UniProt Q09472 1-2414) (enzyme)”, the binding entry was “no binding”.
Consider “sirtuin (SIRT) 7 (from UniProt Q9NRC8 1-400) (enzyme)”, for which the binding result was “binds”.

Source of the values: article PMC10870498.
